From patent publication US20230027854A1, “ISOXAZOLE DERIVATIVES TARGETING TACC3 AS ANTICANCER AGENTS” (A2A Pharmaceuticals, inc., priority 2019, published 2023)
Some of these results come from one statement about several compounds together.

What follows are compounds tested on JIMT-1 cells (assay: JIMT-1 cell growth inhibition / cell viability (SRB assay)).
Type: cell-based, human
Description: The ability of the compounds of the present disclosure to treat TACC3-mediated cancers, or associated symptoms or complications thereof, was determined using the following procedures. The compounds of the present disclosure were tested for their activity against cell death induction using a JIMT-1 cell line, which was a cell line having high level of TACC3. The concentration of each compound that was required for half-maximal inhibition of cell proliferation was calculated by a GraphPad Prism (GraphPad Software).
For CCOc1ccc(-c2cc(Nc3ccnc(N4CCOCC4)n3)on2)cc1 [Compound 9, 3-(4-ethoxyphenyl)-N-(2-morpholinopyrimidin-4-yl)isoxazol-5-amine], the “inhibitory effects on cell growth” value was “remarkable inhibitory effects on cell growth”.
Cc1ccc(-c2cc(Nc3ccnc(N4CCOCC4)n3)on2)cc1 [Compound 13, N-(2-morpholinopyrimidin-4-yl)-3-(p-tolyl)isoxazol-5-amine] was tested, and the “inhibitory effects on cell growth” value was “remarkable inhibitory effects on cell growth”.
With CCc1ccc(-c2cc(Nc3ccnc(N4CCOCC4)n3)on2)cc1 [Compound 14, 3-(4-ethylphenyl)-N-(2-morpholinopyrimidin-4-yl)isoxazol-5-amine] the “inhibitory effects on cell growth” value was “remarkable inhibitory effects on cell growth”.
For CSc1ccc(-c2cc(Nc3ccnc(N4CCOCC4)n3)on2)cc1 [Compound 20, 3-(4-(methylthio)phenyl)-N-(2-morpholinopyrimidin-4-yl)isoxazol-5-amine], the “inhibitory effects on cell growth” value was “remarkable inhibitory effects on cell growth”.
CN(C)c1ccc(-c2cc(Nc3ccnc(N4CCOCC4)n3)on2)cc1 [Compound 21, 3-(4-(dimethylamino)phenyl)-N-(2-morpholinopyrimidin-4-yl)isoxazol-5-amine] was tested, and the “inhibitory effects on cell growth” value was “remarkable inhibitory effects on cell growth”.
COc1ccc(-c2cc(Nc3ccnc(N4CCOCC4)n3)on2)cc1F [Compound 22, 3-(3-fluoro-4-methoxyphenyl)-N-(2-morpholinopyrimidin-4-yl)isoxazol-5-amine] was tested, and the “inhibitory effects on cell growth” value was “remarkable inhibitory effects on cell growth”.
With COc1ccc(-c2cc(Nc3ccnc(N4CCOCC4)n3)on2)cc1Cl [Compound 23, 3-(3-chloro-4-methoxyphenyl)-N-(2-morpholinopyrimidin-4-yl)isoxazol-5-amine] the “inhibitory effects on cell growth” value was “remarkable inhibitory effects on cell growth”.
For COc1ccc(-c2cc(Nc3ccnc(N4CCOCC4)n3)on2)cc1OC [Compound 24, 3-(3,4-dimethoxyphenyl)-N-(2-morpholinopyrimidin-4-yl)isoxazol-5-amine], the “inhibitory effects on cell growth” value was “remarkable inhibitory effects on cell growth”.
With c1cc(Nc2cc(-c3ccc4c(c3)OCO4)no2)nc(N2CCOCC2)n1 [Compound 26, 3-(benzo[d][1,3]dioxol-5-yl)-N-(2-morpholinopyrimidin-4-yl)isoxazol-5-amine] the “inhibitory effects on cell growth” value was “remarkable inhibitory effects on cell growth”.
With COc1ccc(-c2cc(Nc3ccnc(N4C[C@@H](C)O[C@@H](C)C4)n3)on2)cc1 [Compound 33, N-(2-((2R,6S)-2,6-dimethylmorpholino)pyrimidin-4-yl)-3-(4-methoxyphenyl)isoxazol-5-amine] the “inhibitory effects on cell growth” value was “remarkable inhibitory effects on cell growth”.
With COc1ccc(-c2cc(Nc3ccnc(N4C5CCC4COC5)n3)on2)cc1 [Compound 34, N-(2-(3-oxa-8-azabicyclo[3.2.1]octan-8-yl)pyrimidin-4-yl)-3-(4-methoxyphenyl)isoxazol-5-amine] the “inhibitory effects on cell growth” value was “remarkable inhibitory effects on cell growth”.
For COc1ccc(-c2cc(Nc3ccnc(N4C[C@H]5C[C@@H]4CO5)n3)on2)cc1 [Compound 37, N-(2-((1R,4R)-2-oxa-5-azabicyclo[2.2.1]heptan-5-yl)pyrimidin-4-yl)-3-(4-methoxyphenyl)isoxazol-5-amine], the “inhibitory effects on cell growth” value was “remarkable inhibitory effects on cell growth”.
With COc1ccc(-c2cc(Nc3ccnc(N4CCC(F)CC4)n3)on2)cc1 [Compound 38, N-(2-(4-fluoropiperidin-1-yl)pyrimidin-4-yl)-3-(4-methoxyphenyl)isoxazol-5-amine] the “inhibitory effects on cell growth” value was “remarkable inhibitory effects on cell growth”.
In the case of COc1ccc(-c2cc(Nc3ccnc(N4CCC(F)(F)CC4)n3)on2)cc1 [Compound 39, N-(2-(4,4-difluoropiperidin-1-yl)pyrimidin-4-yl)-3-(4-methoxyphenyl)isoxazol-5-amine], the “inhibitory effects on cell growth” value is reported as “remarkable inhibitory effects on cell growth”.
In the case of COc1ccc(-c2cc(Nc3ccnc(N4CCSCC4)n3)on2)cc1 [Compound 40, 3-(4-methoxyphenyl)-N-(2-thiomorpholinopyrimidin-4-yl)isoxazol-5-amine], the “inhibitory effects on cell growth” value is reported as “remarkable inhibitory effects on cell growth”.
COc1ccc(-c2cc(Nc3ccnc(N4CCCCC4)n3)on2)cc1 [Compound 42, 3-(4-methoxyphenyl)-N-(2-(piperidin-1-yl)pyrimidin-4-yl)isoxazol-5-amine] was tested, and the “inhibitory effects on cell growth” value was “remarkable inhibitory effects on cell growth”.
With COc1ccc(-c2cc(Nc3ccnc(N4CCC(C)CC4)n3)on2)cc1 [Compound 43, 3-(4-methoxyphenyl)-N-(2-(4-methylpiperidin-1-yl)pyrimidin-4-yl)isoxazol-5-amine] the “inhibitory effects on cell growth” value was “remarkable inhibitory effects on cell growth”.
COc1ccc(-c2cc(Nc3ccnc(N4CCC(C(F)(F)F)CC4)n3)on2)cc1 [Compound 44, 3-(4-methoxyphenyl)-N-(2-(4-(trifluoromethyl)piperidin-1-yl)pyrimidin-4-yl)isoxazol-5-amine] was tested, and the “inhibitory effects on cell growth” value was “remarkable inhibitory effects on cell growth”.
In the case of COc1ccc(-c2cc(Nc3ccnc(N4CCCC4)n3)on2)cc1 [Compound 45, 3-(4-methoxyphenyl)-N-(2-(pyrrolidin-1-yl)pyrimidin-4-yl)isoxazol-5-amine], the “inhibitory effects on cell growth” value is reported as “remarkable inhibitory effects on cell growth”.
In the case of COc1ccc(-c2cc(Nc3nc(N4CCC(F)CC4)ncc3Cl)on2)cc1 [Compound 59, N-(5-chloro-2-(4-fluoropiperidin-1-yl)pyrimidin-4-yl)-3-(4-methoxyphenyl)isoxazol-5-amine], the “inhibitory effects on cell growth” value is reported as “remarkable inhibitory effects on cell growth”.
For COc1ccc(-c2cc(Nc3nc(N4CCC(F)CC4)ncc3F)on2)cc1 [Compound 60, N-(5-fluoro-2-(4-fluoropiperidin-1-yl)pyrimidin-4-yl)-3-(4-methoxyphenyl)isoxazol-5-amine], the “inhibitory effects on cell growth” value was “remarkable inhibitory effects on cell growth”.
For COc1ccc(-c2cc(N(C)c3ccnc(N4CCOCC4)n3)on2)cc1 [Compound 63, 3-(4-methoxyphenyl)-N-methyl-N-(2-morpholinopyrimidin-4-yl)isoxazol-5-amine], the “inhibitory effects on cell growth” value was “remarkable inhibitory effects on cell growth”.
For CN(C)c1ccc(-c2cc(Nc3ccnc(N4CCC(F)CC4)n3)on2)cc1 [Compound 64, 3-(4-(dimethylamino)phenyl)-N-(2-(4-fluoropiperidin-1-yl)pyrimidin-4-yl)isoxazol-5-amine], the “inhibitory effects on cell growth” value was “remarkable inhibitory effects on cell growth”.
With COc1ccc(-c2cc(Nc3ccnc(N4CCC(F)CC4)n3)on2)cc1F [Compound 65, 3-(3-fluoro-4-methoxyphenyl)-N-(2-(4-fluoropiperidin-1-yl)pyrimidin-4-yl)isoxazol-5-amine] the “inhibitory effects on cell growth” value was “remarkable inhibitory effects on cell growth”.
In the case of COc1ccc(-c2cc(Nc3ccnc(N4C5CCC4COC5)n3)on2)cc1F [Compound 66, N-(2-(3-oxa-8-azabicyclo[3.2.1]octan-8-yl)pyrimidin-4-yl)-3-(3-fluoro-4-methoxyphenyl)isoxazol-5-amine], the “inhibitory effects on cell growth” value is reported as “remarkable inhibitory effects on cell growth”.
For COc1ccc(-c2cc(Nc3ccnc(N4CCCC4)n3)on2)cc1F [Compound 67, 3-(3-fluoro-4-methoxyphenyl)-N-(2-(pyrrolidin-1-yl)pyrimidin-4-yl)isoxazol-5-amine], the “inhibitory effects on cell growth” value was “remarkable inhibitory effects on cell growth”.
